Key:
male Long-Evans rats [1] = test: Laser Doppler microvascular blood flow in right parietal cortex during occlusion; assay type: in vivo, rat; conditions: control 20.8±7.7%
male Long-Evans rats [2] = test: Arterial blood gases and mean arterial blood pressure in the focal cerebral ischemia model; assay type: in vivo, rat; conditions: 30 minutes after MCA occlusion

O=C1NCCc2c(OCCCCN3CCCCC3)cccc21 [DPQ, 3,4-dihydro-5-[4-(1-piperidinyl)-butoxy]-1(2H)-isoquinolinone]
relative blood flow in the right parietal cortex, % of the baseline (male Long-Evans rats [1]; 5 mg/kg): 18.7±7.4%
relative blood flow in the right parietal cortex, % of the baseline (male Long-Evans rats [1]; 10 mg/kg): 21.4±7.7%
relative blood flow in the right parietal cortex, % of the baseline (male Long-Evans rats [1]; 40 mg/kg): 19.3±11.2%
pH (arterial) (male Long-Evans rats [2]; 5 mg/kg): 7.36 ± 0.02
pH (arterial) (male Long-Evans rats [2]; 10 mg/kg): 7.34 ± 0.03
pH (arterial) (male Long-Evans rats [2]; 20 mg/kg): 7.35 ± 0.23
pH (arterial) (male Long-Evans rats [2]; 40 mg/kg): 7.33 ± 0.024

— US6380193B1, “Fused tricyclic compounds, methods and compositions for inhibiting PARP activity” (Guilford Pharmaceuticals Inc., priority 1998, dated 2002)
